The test system of the test is P388 leukemia ip, CD2F1 mice, survival T/C. Briefly: NCI In Vivo Anticancer Drug Screen. Data for tumor model P388 Leukemia (intraperitoneal) in CD2F1 (CDF1) mice. The note with it: T/C endpoint: median survival time, higher T/C = longer survival.
[1] abbreviates: dose: 12.5 mg/kg/injection, schedule: Q01DX009 (ip), vehicle: water.
[2] abbreviates: dose: 25.0 mg/kg/injection, schedule: Q01DX009 (ip), vehicle: water.
The mark [3] stands for this setting: dose: 50.0 mg/kg/injection, schedule: Q01DX009 (ip), vehicle: water.
[4] abbreviates: dose: 100.0 mg/kg/injection, schedule: Q01DX009 (ip), vehicle: water.
Where [5] appears, read: dose: 50.0 mg/kg/injection, schedule: Q01DX009 (ip), vehicle: saline with Tween-80.
The mark [6] stands for this setting: dose: 100.0 mg/kg/injection, schedule: Q01DX009 (ip), vehicle: saline with Tween-80.
The mark [7] stands for this setting: dose: 200.0 mg/kg/injection, schedule: Q01DX009 (ip), vehicle: saline with Tween-80.
Setting [8] is: dose: 50.0 mg/kg/injection, schedule: Q01DX009 (ip), vehicle: saline.
[9] abbreviates: dose: 100.0 mg/kg/injection, schedule: Q01DX009 (ip), vehicle: saline.
The mark [10] stands for this setting: dose: 200.0 mg/kg/injection, schedule: Q01DX009 (ip), vehicle: saline.
The mark [11] stands for this setting: dose: 100.0 mg/kg/injection, schedule: Q04DX003 (ip), vehicle: saline.
[12] abbreviates: dose: 200.0 mg/kg/injection, schedule: Q04DX003 (ip), vehicle: saline.
Where [13] appears, read: dose: 400.0 mg/kg/injection, schedule: Q04DX003 (ip), vehicle: saline.
[14] abbreviates: dose: 25.0 mg/kg/injection, schedule: Q01DX009 (ip), vehicle: saline.
[15] abbreviates: dose: 50.0 mg/kg/injection, schedule: Q01DX005 (ip), vehicle: Klucel (hydroxypropylcellulose) (HPC).
Where [16] appears, read: dose: 100.0 mg/kg/injection, schedule: Q01DX005 (ip), vehicle: Klucel (hydroxypropylcellulose) (HPC).
Setting [17] is: dose: 200.0 mg/kg/injection, schedule: Q01DX005 (ip), vehicle: Klucel (hydroxypropylcellulose) (HPC).

Each structure is given as a SMILES string. The list does not hold the whole screen: it covers a few groups of compounds. Not every dose and run of a compound is shown. T/C: endpoint of the treated group in % of that of the vehicle group. Some entries give survivors of the animals treated and no T/C: the source holds a T/C of zero for them, seemingly a mark for toxic or unscored doses. Some doses without a T/C left all or most animals alive at the check, yet need not have been tolerated: survival well below the control is almost never listed, so the zero probably covers shortened survival too. Survivors were counted at the toxicity check, usually on the fifth day, unless a day is given; later deaths do not show. Schedule codes are those of the source, taken here to give the interval after Q, in days (D) or hours (H), and the number of doses after X. Some entries hold several experiments; their values stand side by side, smallest first. For survival time, the PubChem record calls one and a half times the control and up active, and a quarter to a half above the control has no call in these data; cut-offs in other NCI protocols can differ. Some entries show no survivor count and are marked so; the dose need not have been tolerated. Some metal complexes and salts are drawn in pieces, as in the source, so charges may not balance. Some T/C values carry the count of animals alive at the toxicity check (mostly the fifth day); without a count or a note in brackets, all were alive then.

As to `CC1(C)OCC(COC(=O)N(CCCl)CCCl)O1` (configuration not stated), the T/C (dose: 1.56 mg/kg/injection, schedule: Q01DX009 (ip), vehicle: water) is 100 % of control; the T/C (dose: 3.13 mg/kg/injection, schedule: Q01DX009 (ip), vehicle: water) is 107 % of control; the T/C (dose: 6.25 mg/kg/injection, schedule: Q01DX009 (ip), vehicle: water) is 97 and 109 % of control; the T/C under setting [1] is 102 and 109 % of control; the T/C under setting [2] was 120 and 131 % of control; the T/C under setting [3] was 127 % of control. For the same molecule, the T/C under setting [4] was 172 % of control.

For `O=[N+]([O-])c1cc([N+](=O)[O-])c(-c2cc([N+](=O)[O-])c(-c3c([N+](=O)[O-])cc([N+](=O)[O-])cc3[N+](=O)[O-])s2)c([N+](=O)[O-])c1`, the T/C is, setting by setting: under setting [5], 115 % of control; under setting [6], 90 % of control [5 of 6 alive]; under setting [7], 100 % of control.

Regarding `COP(=O)(C=[N+]=[N-])OC`, the T/C is 108 % of control under setting [1]; 106 % of control under setting [2]; 96 % of control under setting [3]; 97 % of control under setting [4]; 101 % of control (dose: 200.0 mg/kg/injection, schedule: Q01DX009 (ip), vehicle: water).

In the case of `CP(=O)(O)OP(C)(=O)O.[Zn+2]`, the T/C by setting is: (dose: 12.5 mg/kg/injection, schedule: Q04DX002 (ip), vehicle: saline) 109 % of control [survivor count not shown]; (dose: 25.0 mg/kg/injection, schedule: Q04DX002 (ip), vehicle: saline) 115 % of control [survivor count not shown].

Turning to `O=C(O)/C=C\c1ccccc1N(CCCl)CCCl`, the T/C is, setting by setting: (dose: 33.0 mg/kg/injection, schedule: Q04DX003 (ip), vehicle: saline) 195 % of control; (dose: 50.0 mg/kg/injection, schedule: Q04DX003 (ip), vehicle: saline) 231 % of control; (dose: 75.0 mg/kg/injection, schedule: Q04DX003 (ip), vehicle: saline) 90 % of control.

With `O=P1(Cl)OC(c2ccc(Cl)cc2Cl)=CCN1c1ccc(Cl)cc1` (configuration not stated), the T/C reads like this: (dose: 25.0 mg/kg/injection, schedule: Q01DX005 (ip), vehicle: saline with Tween-80) 104 % of control; (dose: 50.0 mg/kg/injection, schedule: Q01DX005 (ip), vehicle: saline with Tween-80) 105 % of control; (dose: 100.0 mg/kg/injection, schedule: Q01DX005 (ip), vehicle: saline with Tween-80) 113 % of control.

Take `COC(=O)c1ccc(N2CCOP2(=O)Cl)cc1O` (configuration not stated): the T/C is, setting by setting: under setting [6], 95 % of control; under setting [7], 106 % of control [5 of 6 alive]. Moreover, where the note is “dose: 400.0 mg/kg/injection, schedule: Q01DX009 (ip), vehicle: saline with Tween-80”, the survivor count is reported as 0 of 6.

Take `CC1(C)NC(C)(C)C(Br)C(=O)C1Br` (configuration not stated): the T/C was 103 % of control [5 of 6 alive] under setting [8]; 106 [5 of 6 alive] and 110 % of control under setting [9]; 103 % of control (dose: 100.0 mg/kg/injection, schedule: Q01DX009 (ip), vehicle: suspension in saline); 102 and 104 % of control under setting [10]; 87 % of control (dose: 200.0 mg/kg/injection, schedule: Q01DX009 (ip), vehicle: suspension in saline). Also, the survivor count by setting is: under setting [8], 5 of 6; (dose: 50.0 mg/kg/injection, schedule: Q01DX009 (ip), vehicle: suspension in saline) 3 of 6.

With `CC1(C)CC[P+](CCC[P+]2(c3ccccc3)CCC(C)(C)c3ccccc32)(c2ccccc2)c2ccccc21.F[P-](F)(F)(F)(F)F` (configuration not stated), the T/C runs as follows: (dose: 3.12 mg/kg/injection, schedule: Q01DX005 (ip), vehicle: saline with Tween-80) 91 % of control [4 of 6 alive]; (dose: 6.25 mg/kg/injection, schedule: Q01DX005 (ip), vehicle: saline with Tween-80) 99 % of control; (dose: 12.5 mg/kg/injection, schedule: Q01DX005 (ip), vehicle: saline with Tween-80) 96 % of control [4 of 6 alive].

Take `C/C1=C2N=C(/C=C3N=C(/C(C)=C4\[N-]C(C(CC(N)=O)C4(C)CCC(=O)NCC(C)OP(=O)(O)OC4C(CO)OC(n5cnc6cc(C)c(C)cc65)C4O)C4(C)N=C1C(CCC(N)=O)C4(C)CC(N)=O)C(CCC(N)=O)C\3(C)C)C(CCC(N)=O)C/2(C)CC(N)=O.[C-]#N.[Co+2]` (configuration not stated): the T/C by setting is: under setting [8], 100 % of control; under setting [9], 106 % of control; under setting [10], 106 % of control.

For the molecule `CCSC(=O)OCC([N+](=O)[O-])([N+](=O)[O-])[N+](=O)[O-]`, the T/C is 97 % of control under setting [11], 103 % of control under setting [12] and 100 % of control under setting [13].

For the molecule `O=C(CCC([N+](=O)[O-])([N+](=O)[O-])[N+](=O)[O-])OCC([N+](=O)[O-])([N+](=O)[O-])[N+](=O)[O-]`, the T/C by setting is: under setting [11], 97 % of control; under setting [12], 98 % of control; under setting [13], 103 % of control [5 of 6 alive].

As to `Cc1ccc(Sc2ccc([N+](=O)[O-])cc2[N+](=O)[O-])c([N+](=O)[O-])c1`, the T/C under setting [14] was 104 % of control, the T/C under setting [8] was 109 % of control and the T/C under setting [9] was 131 % of control.

As for `CC(C)N(CCCl)/N=N/c1nc2nc[nH]c(=O)c2[nH]1`, the T/C is 100 % of control under setting [15], 100 % of control under setting [16] and 100 % of control under setting [17].

With `COP(C)(=O)O.[Cr]`, the T/C by setting is: (dose: 50.0 mg/kg/injection, schedule: Q01DX001 (ip), vehicle: Klucel (hydroxypropylcellulose) (HPC)) 105 % of control [survivor count not shown]; (dose: 100.0 mg/kg/injection, schedule: Q01DX001 (ip), vehicle: Klucel (hydroxypropylcellulose) (HPC)) 100 % of control [survivor count not shown]; (dose: 200.0 mg/kg/injection, schedule: Q01DX001 (ip), vehicle: Klucel (hydroxypropylcellulose) (HPC)) 88 % of control [survivor count not shown].

As to `CCOP(=O)(O)CC.[Th]`, the T/C under setting [5] was 100 % of control [survivor count not shown], the T/C under setting [6] is 105 % of control [survivor count not shown] and the T/C under setting [7] is 107 % of control [survivor count not shown].

With `CN1CCCCC1c1ccccc1.O=[N+]([O-])c1cc([N+](=O)[O-])c(O)c([N+](=O)[O-])c1`, the T/C is, setting by setting: (dose: 25.0 mg/kg/injection, schedule: Q01DX005 (ip), vehicle: Klucel (hydroxypropylcellulose) (HPC)) 98 % of control; under setting [15], 97 % of control; under setting [16], 90 % of control. The survivor count under setting [17] is recorded as 0 of 6.

Take `N/C(N=C1N=NN=N1)=N\[N+](=O)[O-]`: the T/C (dose: 25.0 mg/kg/injection, schedule: Q04DX003 (ip), vehicle: Klucel (hydroxypropylcellulose) (HPC)) is 103 % of control [survivor count not shown]; the T/C (dose: 50.0 mg/kg/injection, schedule: Q04DX003 (ip), vehicle: Klucel (hydroxypropylcellulose) (HPC)) is 100 % of control [survivor count not shown]; the T/C (dose: 100.0 mg/kg/injection, schedule: Q04DX003 (ip), vehicle: Klucel (hydroxypropylcellulose) (HPC)) was 97 [survivor count not shown] and 103 % of control [survivor count not shown].

As to `O=[N+]([O-])c1cc([N+](=O)[O-])c(-c2cc(-c3c([N+](=O)[O-])cc([N+](=O)[O-])cc3[N+](=O)[O-])nc(-c3c([N+](=O)[O-])cc([N+](=O)[O-])cc3[N+](=O)[O-])n2)c([N+](=O)[O-])c1`, the T/C reads like this: under setting [5], 100 % of control; under setting [6], 97 % of control; under setting [7], 106 % of control [5 of 6 alive].

Turning to `CC(C)(C)C1COP(O)OC1` (configuration not stated), the T/C by setting is: (dose: 12.5 mg/kg/injection, schedule: Q01DX009 (ip), vehicle: saline) 101 % of control; under setting [14], 101 % of control. In addition, the survivor count is, setting by setting: under setting [8], 1 of 6 and 2 of 6; under setting [9], 0 of 6; under setting [10], 0 of 6.

For the origin of these results see PubChem BioAssay AID330 (DTP/NCI, 2004).
